# Laboratory results: patent US20050043280A1, “Use of active ingredients having a mu-opioid receptor agonist action and an opiod receptor antognist action, as combination drugs for the treatment of cancer” (priority 2001, published 2005)
# What was measured:
# [1] = test system: human breast carcinoma cells (MCF-7 cell line); details: within 3 weeks; morphine 10, 20, 30 mg/kg daily in week 1, 2, 3; combination with naloxone 1, 2, 3 mg/kg; s.c. MCF-7 in NMRI nu/nu mice
# Protocol: In an established pharmacological animal model, naked mice (NMRI-nu/nu; Harlan, Borchen) received a subcutaneous injection containing a cell suspension (5×10^6 cells in 300 μl per mouse) of human breast carcinoma cells (MCF-7 cell line).
# A total of 5×10^6 cells were injected subcutaneously per mouse. […] The animals were treated with 10 mg/kg β-estradiol valerate (i.m.) one day before and 7 and 14 days after the injection of tumor cells. […] Tumor volume=(long diameter×short diameter^2)/2.
# [2] = plasma of the treated naked mice (not shown)
smiles,measurement,setting,value
CN1CC[C@]23c4c5ccc(O)c4O[C@H]2[C@@H](O)C=C[C@H]3[C@H]1C5 [morphine],tumor growth compared to the control group,[1],approx. one third
same,morphine concentrations in the plasma,[2],corresponded to the plasma levels of patients on chronic oral administration of morphine for pain therapy
